# Laboratory results taken from PubChem BioAssay AID504834 (National Center for Advancing Translational Sciences (NCATS), 2011).
# “And” between values parts separate entries of the source, which are not always exact repeats. Equal entries are not always repeated. The whole screen tested about 320,000 compounds, of which about 22,000 (6.9%) were called active. This list was built around the results that the source calls inconclusive (neither active nor inactive); the mix of calls is not that of the screen. Calls follow the shape of the dose curve; as a rule, active = well fitted inhibition curve with a large enough effect; inconclusive = small, poorly fitted or top-dose-only effect, or another doubt; inactive = no such curve, though single readings can be large or run the other way. Where the call is inconclusive, the potency comes from a doubtful curve fit.
# Test: Primary qHTS for delayed death inhibitors of the malarial parasite plastid, 96 hour incubation
# Conditions: P. falciparum luciferase reporter growth; series mostly up to 28.7 µM
# How it was run: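 Infected RBCs, 2% Hct / 0.05% parasitemia final; luciferase-reporter P. falciparum; cpd 96 h, 37 C, 5% CO2; luciferase detection reagent; luminescence.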
# % is scaled to controls: 0 for no effect and ±100 for the full control effect; potency is read from the fitted curve at half-maximal effect.
Structure (SMILES),Potency,"activity change, negative = inhibition"
CC1CCN(CCCNC(=O)c2ccc(CS(=O)(=O)Cc3ccccc3F)o2)CC1,"inconclusive: 8.28 µM [inhibitor, single point]",–
CN(C)c1ccc(S(=O)(=O)N2CCCCC2)cc1NC(=O)CN1C(=O)NC(C)(c2ccccc2)C1=O (stereo not given),"inconclusive: 9.28 µM [inhibitor, partial curve]",–
O=C(NN=C1CCCC1)c1ccc(O)cc1O,active: 13.1 µM,–
NC(=O)c1ccc2nc(NC(=O)c3ccc(N)cc3)sc2c1,active: 11.7 µM,–
CCc1nnc(NC(=O)CN2CCN(c3cccc(OC)c3)CC2)s1,"inconclusive: 5.22 µM [inhibitor, partial curve]",–
Cc1cnc(NC(=O)CSc2ccc(Cl)cc2)s1,inactive,–
Clc1ccccc1Sc1cnc2ccccc2n1,"inconclusive: 14.7 µM [inhibitor, single point]",–
Cc1c(C#N)c(NC(=O)CCl)n(Cc2ccc(F)cc2)c1C,"inconclusive: 1.47 µM [inhibitor, partial curve, poor fit]",–
CCOC(=O)c1ccc(NC(=O)CCCN2C(=O)NC3(CCCC3)C2=O)cc1,"inconclusive: 11.7 µM [inhibitor, partial curve, poor fit]",–
COCCNC(=S)Nc1ccc(S(=O)(=O)Nc2cnc3ccccc3n2)cc1,inactive,–
CCOc1ccc(C(=O)NC2CCN(C(=O)Nc3ccccc3OC)CC2)cc1,inactive,–
COc1ccc2c(C)cc(C)nc2n1,inactive,–
Cc1cc(S(=O)(=O)NCc2ccc(S(N)(=O)=O)cc2)c(C)s1,"inconclusive: 14.7 µM [inhibitor, single point]",–
COc1ccc(C)cc1NC(=O)CN(C)C1CCCCC1,"inconclusive: 10.4 µM [inhibitor, single point]",–
CCCN1CCN(C(=S)Nc2ccc([N+](=O)[O-])cc2)CC1,inactive,–
CS(=O)(=O)N1CC(C(=O)NC2CC2)Oc2ccc(Cl)cc21 (stereo not given),"inconclusive: 1.47 µM [inhibitor, partial curve, poor fit]",–
COc1cc(OC)c(N(C)S(=O)(=O)c2cccc(C(=O)Nc3nc(C)cs3)c2)cc1Cl,"inconclusive: 11.7 µM [inhibitor, single point]",–
C=CCOC(=O)C1=C(C)Nc2nc3ccccc3n2C1c1ccncc1 (stereo not given),"inconclusive: 18.5 µM [inhibitor, single point]",–
Cc1ccc(-c2nnc(Nc3ccc4c(c3)nc(C)n4C)c3ccccc23)cc1,"inconclusive: 9.28 µM [inhibitor, partial curve, poor fit]",–
CC(C)(C)C(=O)Nc1ccc(NC(=O)C(C)(C)C)cc1,inactive,–
COc1ccc(S(=O)(=O)N(C)c2ccc(C(=O)N3CCC(C(N)=O)CC3)cc2)cc1,"inconclusive: 13.1 µM [inhibitor, single point]",–
CSc1ccc(S(=O)(=O)NCC(=O)OCC(=O)N(C)C2CCCCC2)cc1[N+](=O)[O-],inactive,–
CCCN(CC(=O)Nc1ccccc1C)C(=O)/C=C/c1ccc(S(=O)(=O)N2CCCCCC2)cc1,"inconclusive: 1.31 µM [inhibitor, full curve]",–
Cc1ccsc1C1C(C#N)=C(N)N(N(C)C)C2=C1C(=O)CC(C)(C)C2 (stereo not given),"inconclusive: 1.17 µM [inhibitor, single point]",–

Structure (SMILES),Potency,"activity change, negative = inhibition"
O=C(NC(=S)Nc1ccc(CN2CCOCC2)cc1)c1ccc(-c2ccc(Br)cc2)o1,"inconclusive: 18.5 µM [inhibitor, single point]",–
CC(=O)c1cccc(OCCCOc2cccc3cccnc23)c1,"inconclusive: 2.62 µM [inhibitor, single point]",–
COc1ccccc1-c1c(C(F)(F)F)oc2cc(OCC(=O)Nc3ccccc3C(F)(F)F)ccc2c1=O,active: 5.22 µM,–
COc1ccccc1/C=C/C(=O)NCC(=O)n1nc(C)cc1C,inactive,–
COc1ccc(NC(=O)NC2CCCc3ccccc32)c(OC)c1 (stereo not given),"inconclusive: 18.5 µM [inhibitor, single point]",–
CC1CC(C)CN(S(=O)(=O)c2ccc3c(c2)oc(=O)n3CC(=O)NCc2cccnc2)C1 (stereo not given),active: 10.4 µM,–
CCN1CCc2c(OCC(=O)Nc3ccc4c(c3)OCCO4)cccc2C1=O,active: 6.57 µM,–
CCNc1nc(NCC)nc(N/N=C(\C)c2ccc(OC)cc2)n1,"inconclusive: 11.7 µM [inhibitor, single point]",–
CCOc1ccc(NC(=O)CNC(=O)c2ccco2)cc1,"inconclusive: 18.5 µM [inhibitor, single point]",–
O=C(COC(=O)Cc1cn2ccsc2n1)Nc1nc2ccccc2s1,"inconclusive: 11.7 µM [inhibitor, partial curve]",–
O=C(O)c1ccc2c(c1)C(=O)N([C@H](Cc1c3ccccc3cc3ccccc13)C(=O)O)C2=O,inactive,–
O=C(/C=C\Nc1cccc(F)c1)c1cccs1,inactive,–
COC(=O)c1ccccc1NC(=O)Nc1cccc(C)n1,"inconclusive: 10.4 µM [inhibitor, single point]",–
OC(CNC1CCCCC1)COCCOc1ccc(Br)cc1 (stereo not given),active: 11.7 µM,–
OC(CCN1CCCCC1)(c1ccccc1)c1ccccc1,"inactive and inconclusive: 19 µM [inhibitor, single point]",–
COc1ccc(N(CC(=O)Nc2ccc(OC)cc2OC)S(=O)(=O)c2ccccc2)cc1,"inconclusive: 18.5 µM [inhibitor, single point]",–
CCC(C)NC(=O)c1ccc([N+](=O)[O-])c(Cl)c1 (stereo not given),"inconclusive: 9.28 µM [inhibitor, single point]",–
CCOC(=O)c1c(C)c(C(=O)NCc2cccs2)c(C)n1CC,"inconclusive: 0.147 µM [inhibitor, full curve, poor fit]",–
NC(=O)C1CCN(c2nc(-c3ccc4c(c3)OCCO4)cs2)CC1,"inconclusive: 1.47 µM [activator, full curve]",–
CC(C)C(NC(=O)CN1C(=O)c2ccccc2S1(=O)=O)C(C)C,"inconclusive: 18.5 µM [inhibitor, single point]",–
Cc1ccc2[nH]c(-c3ccccc3)c(CN3CCN(C)CC3)c(=O)c2c1,"inconclusive: 8.28 µM [inhibitor, partial curve]",–
Cc1sc2nc(C)n(/N=C/c3ccc(O)cc3)c(=O)c2c1C,"inconclusive: 9.28 µM [inhibitor, partial curve, poor fit]",–
COC(=O)C1=C(C(=O)c2ccccc2)C(c2ccc(OC)c(OC)c2)Nc2nnnn21 (stereo not given),"inconclusive: 20.8 µM [inhibitor, partial curve, poor fit]",–
CC(=O)C1=C(O)C(=O)N(c2ccccn2)C1c1ccc(Cl)cc1 (stereo not given),inactive,–

# Some of these compounds in order of formula weight, smallest number first.
Structure (SMILES),Potency,"activity change, negative = inhibition"
C=CCOC(=O)C1=C(C)Nc2nc3ccccc3n2C1c1ccncc1 (stereo not given),"inconclusive: 18.5 µM [inhibitor, single point]",–
OC(CNC1CCCCC1)COCCOc1ccc(Br)cc1 (stereo not given),active: 11.7 µM,–
COc1ccccc1-c1c(C(F)(F)F)oc2cc(OCC(=O)Nc3ccccc3C(F)(F)F)ccc2c1=O,active: 5.22 µM,–

# Following part

Structure (SMILES),Potency,"activity change, negative = inhibition"
CC(=O)N1c2ccc(S(=O)(=O)N3CCC(C(=O)N4CCN(c5ccc(Cl)cc5)CC4)CC3)cc2CC1C (stereo not given),"inconclusive: 18.5 µM [inhibitor, single point]",–
N#Cc1ccccc1NCC(=O)N1CCN(S(=O)(=O)c2ccccc2)CC1,"inconclusive: 10.4 µM [inhibitor, single point]",–
COC(=O)c1ccc(OC(=O)c2ccncc2)cc1O,inactive,–
Cc1cccc(/C=C/c2onc(C)c2S(=O)(=O)N2CCC(C(=O)NC(C)C)CC2)c1,"inconclusive: 2.94 µM [inhibitor, partial curve]",–
CCOC(=O)NNc1ccc(C(F)(F)F)cn1,inactive,–
Cn1cc([N+](=O)[O-])c(C(=O)Nc2ccc3c(c2)OCCO3)n1,inactive,–
COc1ccc(NC(=S)NCc2cccs2)cc1OC,–,inactive: -23.5% [at 5.75 µM]
CCOC(=O)c1[nH]cnc1C(=O)N[C@@H](C)c1ccccc1,"inconclusive: 16.5 µM [inhibitor, single point]",–
COc1ccccc1NS(=O)(=O)c1cccc(NC(=O)C(C)NC(=O)c2ccco2)c1 (stereo not given),"inconclusive: 16.5 µM [inhibitor, single point]",–
Cc1ccc(-n2cc(CN3CCN(Cc4nccn4C)CC3)c(-c3ccc(F)cc3)n2)cc1,"inconclusive: 18.5 µM [inhibitor, single point]",–
COc1ccc(C(=O)Nc2oc(-c3ccccc3)c(-c3ccccc3)c2C#N)cc1OC,"inconclusive: 3.29 µM [inhibitor, single point]",–
CCOC(=O)CSc1nnnn1-c1cc(OC)c(Cl)cc1OC,inactive,–
Cc1ccc(-c2cc(C(=O)Nc3ccccn3)c3ccccc3n2)o1,"inconclusive: 6.57 µM [inhibitor, partial curve, poor fit]",–
CCn1c(=O)cc(SCC(=O)Nc2ccc(C)cn2)c2ccccc21,"inconclusive: 18.5 µM [inhibitor, single point]",–
CSCCC(NC(=O)c1ccco1)C(=O)Nc1ccc(C)c(S(=O)(=O)N2CCOCC2)c1 (stereo not given),inactive,–
Cc1ccc(N2CCN(CC(O)COc3ccccc3)CC2)cc1 (stereo not given),inactive,–
CC(C)(Cc1c[nH]c2ccccc12)NCC(O)COc1ccccc1C#N (stereo not given),active: 7.57 µM,–
CC1CN(C(=O)c2ccc(NS(=O)(=O)c3ccc(C(C)(C)C)cc3)cc2)CC(C)O1 (stereo not given),"inconclusive: 10.4 µM [inhibitor, partial curve]",–
CC(C)n1nc(C(=O)NNC(=O)c2ccncc2)c2ccccc2c1=O,inactive,–
CC1CCN(S(=O)(=O)c2ccc3c(c2)c(=O)c(C(=O)NC2CCCC2)cn3C)CC1,"inconclusive: 13.1 µM [inhibitor, single point]",–
O=S(=O)(c1cccs1)N1CCN(c2ccccc2F)CC1,"inconclusive: 18.5 µM [inhibitor, single point]",–
Cc1oc(-c2ccc3ccccc3c2)nc1CN(C)C(C)c1ccncn1 (stereo not given),inactive,–
